# Data taken from the supplement of paper PMC6411743.
# ± gives the standard deviation of the averaged measurements. The list shows a part of the results, in another mix than the full data.
# Columns and labels:
# Assay in all cases: NP40-soluble protein abundance relative to vehicle (solubility fold change) (ratio); higher = more soluble protein in presence of ATP
# [1] = molecular target: T1, H3BNT4 and related entries (UniProt Q99547)
# T1 sequence (whole entry): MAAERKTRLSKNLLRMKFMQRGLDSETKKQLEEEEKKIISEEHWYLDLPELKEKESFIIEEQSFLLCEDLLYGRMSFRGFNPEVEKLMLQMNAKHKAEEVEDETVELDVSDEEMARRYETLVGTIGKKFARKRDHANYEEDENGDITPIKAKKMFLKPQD
# Procedure, shortened: (§1)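 Crude Jurkat lysate, prepared by Dounce homogenisation, was exposed to eight concentrations from 0.1 to 10 mM for 10 min at room temperature and then 3 min at 37 °C. Solubilisation used 0.8% NP40 with benzonase for 60 min at 4 °C, followed by ultracentrifugation and TMT labelling of the supernatant for LC-MS/MS. After vsn normalisation of intensities, each value is the fold change against the detergent-processed vehicle within each replicate, across three independent experiments.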
# [2] = molecular target: T2, H7BY55 and related entries (UniProt P08174)
# T2 sequence (whole entry): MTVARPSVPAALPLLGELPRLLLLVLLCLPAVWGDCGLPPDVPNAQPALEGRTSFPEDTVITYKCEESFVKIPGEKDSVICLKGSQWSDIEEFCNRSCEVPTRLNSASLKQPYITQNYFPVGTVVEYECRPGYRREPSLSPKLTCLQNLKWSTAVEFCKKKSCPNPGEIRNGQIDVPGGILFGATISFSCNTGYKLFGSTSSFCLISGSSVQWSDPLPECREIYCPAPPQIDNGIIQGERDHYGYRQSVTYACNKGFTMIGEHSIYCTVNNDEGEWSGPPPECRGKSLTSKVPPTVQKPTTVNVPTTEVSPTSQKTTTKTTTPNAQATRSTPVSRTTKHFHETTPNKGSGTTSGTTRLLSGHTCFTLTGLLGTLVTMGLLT
# Procedure, shortened: as §1
# [3] = molecular target: T3, H7C561 and related entries (UniProt Q15637)
# T3 sequence (whole entry): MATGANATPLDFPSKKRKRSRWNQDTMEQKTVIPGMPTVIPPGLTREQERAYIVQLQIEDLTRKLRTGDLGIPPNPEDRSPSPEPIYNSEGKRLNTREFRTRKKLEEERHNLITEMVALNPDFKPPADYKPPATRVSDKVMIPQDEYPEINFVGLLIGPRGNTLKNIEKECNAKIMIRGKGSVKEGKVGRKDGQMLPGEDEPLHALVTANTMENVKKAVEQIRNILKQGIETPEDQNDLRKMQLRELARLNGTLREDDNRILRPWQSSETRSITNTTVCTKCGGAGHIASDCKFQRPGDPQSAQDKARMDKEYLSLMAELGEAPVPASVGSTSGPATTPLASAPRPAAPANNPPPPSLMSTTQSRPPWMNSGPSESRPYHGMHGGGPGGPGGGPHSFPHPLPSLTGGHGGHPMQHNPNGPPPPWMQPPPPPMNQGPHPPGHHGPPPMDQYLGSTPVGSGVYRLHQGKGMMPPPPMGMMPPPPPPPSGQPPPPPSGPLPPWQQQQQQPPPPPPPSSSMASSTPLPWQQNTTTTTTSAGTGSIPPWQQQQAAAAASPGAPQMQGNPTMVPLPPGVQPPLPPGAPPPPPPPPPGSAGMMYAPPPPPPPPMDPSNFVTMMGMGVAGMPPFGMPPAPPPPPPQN
# Procedure, shortened: as §1
# [4] = molecular target: T4, J3KPD3 and related entries (UniProt Q9Y580)
# T4 sequence (whole entry): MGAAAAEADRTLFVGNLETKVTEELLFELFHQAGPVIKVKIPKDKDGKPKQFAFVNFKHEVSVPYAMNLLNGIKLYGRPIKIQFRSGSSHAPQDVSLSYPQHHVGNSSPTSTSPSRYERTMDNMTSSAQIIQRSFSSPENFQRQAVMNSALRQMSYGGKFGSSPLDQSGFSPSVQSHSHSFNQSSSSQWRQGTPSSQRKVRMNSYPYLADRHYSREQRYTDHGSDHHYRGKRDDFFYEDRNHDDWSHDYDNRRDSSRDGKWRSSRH
# Procedure, shortened: as §1
# [5] = molecular target: T5, J3KPT4 and related entries (UniProt Q9H4I3)
# T5 sequence (whole entry): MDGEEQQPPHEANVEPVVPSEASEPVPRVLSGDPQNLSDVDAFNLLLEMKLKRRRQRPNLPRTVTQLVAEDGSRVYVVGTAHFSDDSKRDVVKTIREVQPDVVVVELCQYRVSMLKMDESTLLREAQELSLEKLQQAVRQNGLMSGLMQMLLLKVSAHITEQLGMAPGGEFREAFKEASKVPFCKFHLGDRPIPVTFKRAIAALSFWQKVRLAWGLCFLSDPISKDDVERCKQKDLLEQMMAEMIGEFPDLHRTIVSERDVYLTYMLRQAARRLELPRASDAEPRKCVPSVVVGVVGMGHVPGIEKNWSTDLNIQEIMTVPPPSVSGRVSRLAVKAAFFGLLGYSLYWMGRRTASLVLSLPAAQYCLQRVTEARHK
# Procedure, shortened: as §1
# [6] = molecular target: T6, J3KSW2 and related entries (UniProt Q9UNA4)
# T6 sequence (whole entry): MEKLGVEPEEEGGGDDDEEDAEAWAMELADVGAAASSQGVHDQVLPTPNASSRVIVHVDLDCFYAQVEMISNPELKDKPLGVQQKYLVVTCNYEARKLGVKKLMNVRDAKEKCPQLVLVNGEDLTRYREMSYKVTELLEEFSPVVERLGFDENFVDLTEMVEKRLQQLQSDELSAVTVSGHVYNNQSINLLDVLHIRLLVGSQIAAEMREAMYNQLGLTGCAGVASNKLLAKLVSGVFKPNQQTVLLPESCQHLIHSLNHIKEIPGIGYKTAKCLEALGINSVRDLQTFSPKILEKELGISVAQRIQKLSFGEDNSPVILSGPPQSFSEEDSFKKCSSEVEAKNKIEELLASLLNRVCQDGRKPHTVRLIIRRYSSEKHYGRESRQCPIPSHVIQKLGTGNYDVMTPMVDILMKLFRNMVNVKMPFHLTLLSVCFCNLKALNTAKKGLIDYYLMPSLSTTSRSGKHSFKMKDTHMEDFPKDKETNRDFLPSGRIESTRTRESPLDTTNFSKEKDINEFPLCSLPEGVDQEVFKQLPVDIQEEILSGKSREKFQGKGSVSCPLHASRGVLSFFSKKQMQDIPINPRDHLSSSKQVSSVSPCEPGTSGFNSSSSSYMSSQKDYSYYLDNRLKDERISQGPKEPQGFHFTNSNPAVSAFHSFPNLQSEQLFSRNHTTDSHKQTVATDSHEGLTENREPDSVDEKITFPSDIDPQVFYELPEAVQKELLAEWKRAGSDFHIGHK
# Procedure, shortened: as §1
# [7] = molecular target: T7, J3KSZ8 and related entries (UniProt Q68DK7)
# T7 sequence (whole entry): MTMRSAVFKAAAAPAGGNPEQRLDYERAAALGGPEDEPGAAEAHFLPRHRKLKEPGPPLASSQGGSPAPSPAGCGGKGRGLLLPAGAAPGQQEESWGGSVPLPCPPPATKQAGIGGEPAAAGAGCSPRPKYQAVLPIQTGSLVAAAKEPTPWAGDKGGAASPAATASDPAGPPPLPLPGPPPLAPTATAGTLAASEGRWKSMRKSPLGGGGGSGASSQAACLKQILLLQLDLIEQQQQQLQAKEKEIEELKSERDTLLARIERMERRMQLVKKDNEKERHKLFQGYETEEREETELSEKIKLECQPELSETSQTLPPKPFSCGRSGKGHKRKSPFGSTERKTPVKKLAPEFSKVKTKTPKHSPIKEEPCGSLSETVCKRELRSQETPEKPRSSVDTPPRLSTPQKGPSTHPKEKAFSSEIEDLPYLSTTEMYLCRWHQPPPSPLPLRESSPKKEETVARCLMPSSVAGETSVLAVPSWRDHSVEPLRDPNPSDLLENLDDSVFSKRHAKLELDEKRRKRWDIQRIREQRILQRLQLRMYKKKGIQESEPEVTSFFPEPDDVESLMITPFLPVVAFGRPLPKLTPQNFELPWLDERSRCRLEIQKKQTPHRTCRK
# Procedure, shortened: as §1
# [8] = molecular target: T8, M0QYA8 and related entries (UniProt Q8IV63)
# T8 sequence (whole entry): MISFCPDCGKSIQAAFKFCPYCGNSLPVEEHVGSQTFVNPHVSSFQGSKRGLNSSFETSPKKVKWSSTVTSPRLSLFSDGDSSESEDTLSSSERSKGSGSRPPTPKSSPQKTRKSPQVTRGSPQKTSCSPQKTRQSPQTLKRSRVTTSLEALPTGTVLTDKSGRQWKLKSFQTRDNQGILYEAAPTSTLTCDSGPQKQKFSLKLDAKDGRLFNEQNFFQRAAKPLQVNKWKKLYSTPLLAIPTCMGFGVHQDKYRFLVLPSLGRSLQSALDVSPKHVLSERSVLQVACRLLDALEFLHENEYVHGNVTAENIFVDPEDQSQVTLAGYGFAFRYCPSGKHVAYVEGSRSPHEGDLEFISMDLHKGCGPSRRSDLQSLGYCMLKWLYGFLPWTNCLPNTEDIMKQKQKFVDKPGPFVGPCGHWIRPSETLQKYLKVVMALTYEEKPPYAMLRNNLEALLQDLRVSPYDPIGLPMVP
# Procedure, shortened: as §1
compound,measurement,setting,value
Nc1ncnc2c1ncn2[C@@H]1O[C@H](COP(=O)(O)OP(=O)(O)OP(=O)(O)O)[C@@H](O)[C@H]1O [adenosine triphosphate],NP40-soluble protein abundance,[1]; concentration: 1mM,1.05 ± 0.058
same,NP40-soluble protein abundance,[1]; concentration: 2mM,1.04 ± 0.11
same,NP40-soluble protein abundance,[1]; concentration: 4mM,1.13 ± 0.025
same,NP40-soluble protein abundance,[1]; concentration: 6mM,1.23 ± 0.045
same,NP40-soluble protein abundance,[1]; concentration: 8mM,1.21 ± 0.081
same,NP40-soluble protein abundance,[1]; concentration: 10mM,1.22 ± 0.022
same,NP40-soluble protein abundance,[2]; concentration: 1mM,0.94 ± 0.042
same,NP40-soluble protein abundance,[2]; concentration: 2mM,0.964 ± 0.058
same,NP40-soluble protein abundance,[2]; concentration: 4mM,0.904 ± 0.051
same,NP40-soluble protein abundance,[2]; concentration: 6mM,0.949 ± 0.035
same,NP40-soluble protein abundance,[2]; concentration: 8mM,0.926 ± 0.062
same,NP40-soluble protein abundance,[2]; concentration: 10mM,0.92 ± 0.078
same,NP40-soluble protein abundance,[3]; concentration: 1mM,0.995 ± 0.068
same,NP40-soluble protein abundance,[3]; concentration: 2mM,0.9763 ± 0.0059
same,NP40-soluble protein abundance,[3]; concentration: 4mM,0.963 ± 0.034
same,NP40-soluble protein abundance,[3]; concentration: 6mM,1.02 ± 0.033
same,NP40-soluble protein abundance,[3]; concentration: 8mM,0.969 ± 0.026
same,NP40-soluble protein abundance,[3]; concentration: 10mM,0.947 ± 0.04
same,NP40-soluble protein abundance,[4]; concentration: 1mM,0.93 ± 0.044
same,NP40-soluble protein abundance,[4]; concentration: 2mM,0.903 ± 0.04
same,NP40-soluble protein abundance,[4]; concentration: 4mM,0.943 ± 0.023
same,NP40-soluble protein abundance,[4]; concentration: 6mM,0.958 ± 0.1
same,NP40-soluble protein abundance,[4]; concentration: 8mM,0.98 ± 0.049
same,NP40-soluble protein abundance,[4]; concentration: 10mM,1.03 ± 0.098
same,NP40-soluble protein abundance,[5]; concentration: 1mM,1.02 ± 0.078
same,NP40-soluble protein abundance,[5]; concentration: 2mM,0.971 ± 0.045
same,NP40-soluble protein abundance,[5]; concentration: 4mM,0.976 ± 0.043
same,NP40-soluble protein abundance,[5]; concentration: 6mM,0.948 ± 0.096
same,NP40-soluble protein abundance,[5]; concentration: 8mM,0.986 ± 0.042
same,NP40-soluble protein abundance,[5]; concentration: 10mM,0.997 ± 0.043
same,NP40-soluble protein abundance,[6]; concentration: 1mM,1.02 ± 0.1
same,NP40-soluble protein abundance,[6]; concentration: 2mM,0.948 ± 0.083
same,NP40-soluble protein abundance,[6]; concentration: 4mM,1.02 ± 0.15
same,NP40-soluble protein abundance,[6]; concentration: 6mM,0.995 ± 0.11
same,NP40-soluble protein abundance,[6]; concentration: 8mM,0.977 ± 0.15
same,NP40-soluble protein abundance,[6]; concentration: 10mM,0.957 ± 0.2
same,NP40-soluble protein abundance,[7]; concentration: 1mM,1.23 ± 0.18
same,NP40-soluble protein abundance,[7]; concentration: 2mM,1.27 ± 0.2
same,NP40-soluble protein abundance,[7]; concentration: 4mM,1.33 ± 0.12
same,NP40-soluble protein abundance,[7]; concentration: 6mM,1.39 ± 0.23
same,NP40-soluble protein abundance,[7]; concentration: 8mM,1.32 ± 0.12
same,NP40-soluble protein abundance,[7]; concentration: 10mM,1.38 ± 0.16
same,NP40-soluble protein abundance,[8]; concentration: 1mM,1.38 ± 0.086
same,NP40-soluble protein abundance,[8]; concentration: 2mM,1.44 ± 0.11
same,NP40-soluble protein abundance,[8]; concentration: 4mM,1.49 ± 0.15
same,NP40-soluble protein abundance,[8]; concentration: 6mM,1.49 ± 0.21
same,NP40-soluble protein abundance,[8]; concentration: 8mM,1.47 ± 0.21
same,NP40-soluble protein abundance,[8]; concentration: 10mM,1.55 ± 0.18

# Looked up one by one from the entries so far:
compound,measurement,setting,value
Nc1ncnc2c1ncn2[C@@H]1O[C@H](COP(=O)(O)OP(=O)(O)OP(=O)(O)O)[C@@H](O)[C@H]1O [adenosine triphosphate],NP40-soluble protein abundance,[6]; concentration: 1mM,1.02 ± 0.1
same,NP40-soluble protein abundance,[6]; concentration: 10mM,0.957 ± 0.2
